From patent publication US20160311845
For at least one entry, the source does not settle the construct or the ends of the probe.

Chains of the proteins cited; added tags and fusions are not shown. Chains listed by the source or under a name are the forms on record and can include a tag or linker.
VEGF (Homo sapiens), one chain, as listed by the source: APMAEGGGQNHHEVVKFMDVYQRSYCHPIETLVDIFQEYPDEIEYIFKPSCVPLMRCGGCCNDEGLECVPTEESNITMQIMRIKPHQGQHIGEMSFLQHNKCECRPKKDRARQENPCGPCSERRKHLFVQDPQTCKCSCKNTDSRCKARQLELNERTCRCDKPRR

system: VEGF (Homo sapiens); test: SELEX; settings: KK10 (dUgu) replaces T outside the 5' primer region; NECEEM-selected; 1 mM MgCl2, 10 mM NaCl, pH 7.4; purified recombinant protein; single-stranded DNA

Selection result, selected:
TCGCTCGGCAGGATCGCAAGAAGGATGATCGATAAGCGGTCTATAGAGGGTGGACGGAGCAGTGGCAGCA [KK10 VEGF aptamer SEQ 6]

same assay, conditions: KK10 (dUgu) replaces T outside the 5' primer region; NECEEM-selected; purified recombinant protein; single-stranded DNA

Selection result, selected:
TCGCTCGGCAGGATCGCAAGACGTGAGAGCTTAGAATTCCCACTTGAGCTGGACGGAGCAGTGGCAGCA [KK10 VEGF aptamer SEQ 32]
TCGCTCGGCAGGATCGCAAGAGAGACCACAGCTGAGTTGTATACGAGAAGTGGACGGAGCAGTGGCAGCA [KK10 VEGF aptamer SEQ 15]
TCGCTCGGCAGGATCGCAAGAGCGGGGTTAGTATAGTTCTGGAATGAAGTTGGACGGAGCAGTGGCAGCA [KK10 VEGF aptamer SEQ 17]
TCGCTCGGCAGGATCGCAAGAGCGTGAGAGCTTAGAATTCCCACTTGAGCTGGACGGAGCAGTGGCAGCA [KK10 VEGF aptamer SEQ 31]
TCGCTCGGCAGGATCGCAAGATAGCATCCCACGGTTTCTAATTGCTACGCTGGACGGAGCAGTGGCAGCA [KK10 VEGF aptamer SEQ 18]
TCGCTCGGCAGGATCGCAAGATCCATGTAACGGCTGTTAGCTCATAGGACTGGACGGAGCAGTGGCAGCA [KK10 VEGF aptamer SEQ 7]
TCGCTCGGCAGGATCGCAAGCCGAGACTGCGTTGTAGGGGCAAGTGGCAATGGACGGAGCAGTGGCAGCA [KK10 VEGF aptamer SEQ 12]
TCGCTCGGCAGGATCGCAAGCCGCGTTTAAGGGTAAGTAGGGCATTGTCATGGACGGAGCAGTGGCAGCA [KK10 VEGF aptamer SEQ 37]
TCGCTCGGCAGGATCGCAAGCGTGAGAAGGATGGGGGTCTGAGGTTGAGTTGGACGGAGCAGTGGCAGCA [KK10 VEGF aptamer SEQ 19]
TCGCTCGGCAGGATCGCAAGCGTGGATACGGTACTAAACGAAGTAACCCTTGGACGGAGCAGTGGCAGCA [KK10 VEGF aptamer SEQ 11]
TCGCTCGGCAGGATCGCAAGCTAGGGTGTCGGCACGAACTAACAAAACTGTGGACGGAGCAGTGGCAGCA [KK10 VEGF aptamer SEQ 24]
TCGCTCGGCAGGATCGCAAGGAACCTCTACCTAGGCTACGTACTTGCGGCTGGACGGAGCAGTGGCAGCA [KK10 VEGF aptamer SEQ 14]
TCGCTCGGCAGGATCGCAAGGACAAGTACCTTTGCACGCGCTCACTACCTTGGACGGAGCAGTGGCAGCA [KK10 VEGF aptamer SEQ 20]
TCGCTCGGCAGGATCGCAAGGACATGTACCTTTGCACGCGCTCACTACCTTGGACGGAGCAGTGGCAGCA [KK10 VEGF aptamer SEQ 21]
TCGCTCGGCAGGATCGCAAGGAGGTTCATGAAAAAATAAACGGTGGTCCATGGACGGAGCAGTGGCAGCA [KK10 VEGF aptamer SEQ 29]
TCGCTCGGCAGGATCGCAAGGAGGTTCATGAAGAAATAAACGGTGGTCCATGGACGGAGCAGTGGCAGCA [KK10 VEGF aptamer SEQ 30]
TCGCTCGGCAGGATCGCAAGGAGTTCATGAGGGGAAAATGTGGGGTGACCTGGACGGAGCAGTGGCAGCA [KK10 VEGF aptamer SEQ 22]
TCGCTCGGCAGGATCGCAAGGAGTTCATGAGGGGAAAATGTGGGGTGACTTGGACGGAGCAGTGGCAGCA [KK10 VEGF aptamer SEQ 23]
TCGCTCGGCAGGATCGCAAGGGCAGTGAGTTGTTAAGTACCCACATGAAGTGGACGGAGCAGTGGCAGCA [KK10 VEGF aptamer SEQ 10]
TCGCTCGGCAGGATCGCAAGGGCGTGACCGGTTCATTCCTTAATTTACAATGGACGGAGCAGTGGCAGCA [KK10 VEGF aptamer SEQ 13]
TCGCTCGGCAGGATCGCAAGTATGGCCGGATGGCATAGGATTCTCCTTCGTGGACGGAGCAGTGGCAGCA [KK10 VEGF aptamer SEQ 26]
TCGCTCGGCAGGATCGCAAGTCAGGCGCTTGGCATGCTCGATGAGTCTGGTGGACGGAGCAGTGGCAGCA [KK10 VEGF aptamer SEQ 8]
TCGCTCGGCAGGATCGCAAGTCGAGTTTAAGGGTAAGTAGGGCATTGTCATGGACGGAGCAGTGGCAGCA [KK10 VEGF aptamer SEQ 40]
TCGCTCGGCAGGATCGCAAGTCGCGTTTAAGGGGAAGTAGGGCATTGTCATGGACGGAGCAGTGGCAGCA [KK10 VEGF aptamer SEQ 39]
TCGCTCGGCAGGATCGCAAGTCGCGTTTAAGGGTAAGTAGGGCATTGCCATGGACGGAGCAGTGGCAGCA [KK10 VEGF aptamer SEQ 36]
TCGCTCGGCAGGATCGCAAGTCGCGTTTAAGGGTAAGTAGGGCATTGTCATGGACGGAGCAGTGGCAGCA [KK10 VEGF aptamer SEQ 35]
TCGCTCGGCAGGATCGCACGAGCGTGAGAGCTTAGAATTCCCACTTGAGTTGGACGGAGCAGTGGCAGCA [KK10 VEGF aptamer SEQ 34]
TCGCTCGGCAGGATCGCACGCGTGAACTTGTATTCACGAGCGGTAACACATGGACGGAGCAGTGGCAGCA [KK10 VEGF aptamer SEQ 16]
TCGCTCGGCAGGATCGCACGCTAGGGTGTCGGCACGAACTAACAAAACTGTGGACGGAGCAGTGGCAGCA [KK10 VEGF aptamer SEQ 25]
TCGCTCGGCAGGATCGCACGGAGGTTCATGAAAAAATAAACGGTGGTCCATGGACGGAGCAGTGGCAGCA [KK10 VEGF aptamer SEQ 28]
TCGCTCGGCAGGATCGCACGGGCGAAGGGGAACAGATATTCTCTGATGCATGGACGGAGCAGTGGCACAA [KK10 VEGF aptamer SEQ 9]
TCGCTCGGCAGGATCGCACGTATGGCCGGATGGCATAGGATTCTCCTTCGTGGACGGAGCAGTGGCAGCA [KK10 VEGF aptamer SEQ 27]
TCGCTCGGCAGGATCGCACGTCGCGTTTAAGGGTAAGTAGGGCATTGTCATGGACGGAGCAGTGGCAGCA [KK10 VEGF aptamer SEQ 38]
TCGCTCGGCAGGATCGCATGAGCGTGAGAGCTTAGAATTCCCACTTGAGCTGGACGGAGCAGTGGCAGCA [KK10 VEGF aptamer SEQ 33]
